# The supplement of paper PMC11438910
# Some of the results follow. Only a few entries rise above the background.
# B1: 4-80.2 (protein)
# chain 1: QVQLQESGPGLVKPSETLSLTCAVSGDSFSSYWWSWIRQPPGKGLEWIGEINGNVGSTNYNPSLKSRVTISKDASKNQFSLKLSSVTAADTAVYYCARYKEYWGQGVLVTVSS
# chain 2: DVVMTQSPLSLPITPGQPASISCRSSQSLVHSNGNTYLSWYQQKPGQPPRRLIYEVSNRDSGVPDRFSGSGAGTDFTLKISRVEAEDVGVYYCGQGTHLPYSFGQGTKVEIK
# B2: 4-127.5 (protein)
# chain 1: QVQLQESGPGLVKPSETLSLTCAVSGYSISSGYGWSWIRQPPGKGLEWIGYIGGSDSSTNYNPSLKSRVTISKDTSKNQLSLKLRSVTAADTAVYYCGSRGAVAGLGGLDSWGQGLLVTVSS
# chain 2: QSVLTQPPSVSGAPGQRVTISCTGSSSNIGAGYGVQWYQQLPGTAPKLLIYENNKRPSGVFDRFSGSQSGTSGSLTITGLQSEDEADYYCQSYDSSLKAVLFGGGTRLTVL
# Tests used:
# Assay in all cases: fluorescence intensity of antibody binding to polysaccharide-coupled beads; higher = stronger binding
# [1] = biological target: pneumococcal polysaccharide Pn9N
# [2] = biological target: pneumococcal polysaccharide Pn9V
# [3] = biological target: pneumococcal polysaccharide C-Poly-1
# [4] = biological target: pneumococcal polysaccharide C-Poly-2
# [5] = biological target: pneumococcal polysaccharide Pn1
# [6] = biological target: pneumococcal polysaccharide Pn10A
# [7] = biological target: pneumococcal polysaccharide Pn10B
# [8] = biological target: pneumococcal polysaccharide Pn10C
# [9] = biological target: pneumococcal polysaccharide Pn10F
# [10] = biological target: pneumococcal polysaccharide Pn11A
# [11] = biological target: pneumococcal polysaccharide Pn11B
# [12] = biological target: pneumococcal polysaccharide Pn11C
# [13] = biological target: pneumococcal polysaccharide Pn11D
# [14] = biological target: pneumococcal polysaccharide Pn11F
# [15] = antibody concentration 2337.65 ng/mL
# [16] = antibody concentration 12500 ng/mL
# [17] = antibody concentration 0.1 ng/mL
# [18] = antibody concentration 0.534724 ng/mL
# [19] = antibody concentration 2.8593 ng/mL
# [20] = antibody concentration 15.2894 ng/mL
# [21] = antibody concentration 81.7561 ng/mL
# [22] = antibody concentration 437.17 ng/mL
binder,measurement,setting,value
B1,fluorescence intensity,[1]; [15],17.5 MFI
same,fluorescence intensity,[1]; [16],28 MFI
same,fluorescence intensity,[2]; [17],14.8 MFI
same,fluorescence intensity,[2]; [18],14 MFI
same,fluorescence intensity,[2]; [19],16 MFI
same,fluorescence intensity,[2]; [20],15.5 MFI
same,fluorescence intensity,[2]; [21],14.5 MFI
same,fluorescence intensity,[2]; [22],15 MFI
same,fluorescence intensity,[2]; [15],18 MFI
same,fluorescence intensity,[2]; [16],19 MFI
B2,fluorescence intensity,[3]; [17],27 MFI
same,fluorescence intensity,[3]; [18],29.5 MFI
same,fluorescence intensity,[3]; [19],28.5 MFI
same,fluorescence intensity,[3]; [20],27.5 MFI
same,fluorescence intensity,[3]; [21],26.2 MFI
same,fluorescence intensity,[3]; [22],29 MFI
same,fluorescence intensity,[3]; [15],37.5 MFI
same,fluorescence intensity,[3]; [16],260 MFI
same,fluorescence intensity,[4]; [17],21 MFI
same,fluorescence intensity,[4]; [18],22 MFI
same,fluorescence intensity,[4]; [19],21 MFI
same,fluorescence intensity,[4]; [20],21.5 MFI
same,fluorescence intensity,[4]; [21],19.5 MFI
same,fluorescence intensity,[4]; [22],23 MFI
same,fluorescence intensity,[4]; [15],33 MFI
same,fluorescence intensity,[4]; [16],198 MFI
same,fluorescence intensity,[5]; [17],15 MFI
same,fluorescence intensity,[5]; [18],14.8 MFI
same,fluorescence intensity,[5]; [19],15 MFI
same,fluorescence intensity,[5]; [20],15 MFI
same,fluorescence intensity,[5]; [21],13.5 MFI
same,fluorescence intensity,[5]; [22],14.5 MFI
same,fluorescence intensity,[5]; [15],18.2 MFI
same,fluorescence intensity,[5]; [16],33.5 MFI
same,fluorescence intensity,[6]; [17],27.8 MFI
same,fluorescence intensity,[6]; [18],27.5 MFI
same,fluorescence intensity,[6]; [19],27 MFI
same,fluorescence intensity,[6]; [20],27 MFI
same,fluorescence intensity,[6]; [21],26.5 MFI
same,fluorescence intensity,[6]; [22],28 MFI
same,fluorescence intensity,[6]; [15],27.5 MFI
same,fluorescence intensity,[6]; [16],38.5 MFI
same,fluorescence intensity,[7]; [17],24.2 MFI
same,fluorescence intensity,[7]; [18],25 MFI
same,fluorescence intensity,[7]; [19],24.5 MFI
same,fluorescence intensity,[7]; [20],25.5 MFI
same,fluorescence intensity,[7]; [21],26.2 MFI
same,fluorescence intensity,[7]; [22],25.2 MFI
same,fluorescence intensity,[7]; [15],29.8 MFI
same,fluorescence intensity,[7]; [16],42.5 MFI
same,fluorescence intensity,[8]; [17],16.5 MFI
same,fluorescence intensity,[8]; [18],16.5 MFI
same,fluorescence intensity,[8]; [19],17.5 MFI
same,fluorescence intensity,[8]; [20],18 MFI
same,fluorescence intensity,[8]; [21],18.8 MFI
same,fluorescence intensity,[8]; [22],17.2 MFI
same,fluorescence intensity,[8]; [15],20.5 MFI
same,fluorescence intensity,[8]; [16],33 MFI
same,fluorescence intensity,[9]; [17],20.5 MFI
same,fluorescence intensity,[9]; [18],21.8 MFI
same,fluorescence intensity,[9]; [19],21 MFI
same,fluorescence intensity,[9]; [20],20.5 MFI
same,fluorescence intensity,[9]; [21],21 MFI
same,fluorescence intensity,[9]; [22],21.5 MFI
same,fluorescence intensity,[9]; [15],23.5 MFI
same,fluorescence intensity,[9]; [16],28.8 MFI
same,fluorescence intensity,[10]; [17],30.5 MFI
same,fluorescence intensity,[10]; [18],30.8 MFI
same,fluorescence intensity,[10]; [19],28.5 MFI
same,fluorescence intensity,[10]; [20],28.8 MFI
same,fluorescence intensity,[10]; [21],29 MFI
same,fluorescence intensity,[10]; [22],30 MFI
same,fluorescence intensity,[10]; [15],36.5 MFI
same,fluorescence intensity,[10]; [16],43.8 MFI
same,fluorescence intensity,[11]; [17],27.5 MFI
same,fluorescence intensity,[11]; [18],27.2 MFI
same,fluorescence intensity,[11]; [19],26.2 MFI
same,fluorescence intensity,[11]; [20],27 MFI
same,fluorescence intensity,[11]; [21],28.8 MFI
same,fluorescence intensity,[11]; [22],30.5 MFI
same,fluorescence intensity,[11]; [15],34.5 MFI
same,fluorescence intensity,[11]; [16],49 MFI
same,fluorescence intensity,[12]; [17],23.2 MFI
same,fluorescence intensity,[12]; [18],22.5 MFI
same,fluorescence intensity,[12]; [19],23 MFI
same,fluorescence intensity,[12]; [20],22.5 MFI
same,fluorescence intensity,[12]; [21],22 MFI
same,fluorescence intensity,[12]; [22],26.5 MFI
same,fluorescence intensity,[12]; [15],50 MFI
same,fluorescence intensity,[12]; [16],284 MFI
same,fluorescence intensity,[13]; [17],23.5 MFI
same,fluorescence intensity,[13]; [18],23.8 MFI
same,fluorescence intensity,[13]; [19],23 MFI
same,fluorescence intensity,[13]; [20],25.8 MFI
same,fluorescence intensity,[13]; [21],22.5 MFI
same,fluorescence intensity,[13]; [22],24.8 MFI
same,fluorescence intensity,[13]; [15],35 MFI
same,fluorescence intensity,[13]; [16],125 MFI
same,fluorescence intensity,[14]; [17],14 MFI
same,fluorescence intensity,[14]; [18],14.2 MFI

# Some of the entries so far, tab-delimited:
binder	measurement	setting	value
B2	fluorescence intensity	[3]; [19]	28.5 MFI
same	fluorescence intensity	[3]; [20]	27.5 MFI
same	fluorescence intensity	[3]; [21]	26.2 MFI
same	fluorescence intensity	[3]; [22]	29 MFI
same	fluorescence intensity	[3]; [15]	37.5 MFI
